Data: article PMC9279676, “ERK2 MAP kinase regulates SUFU binding by multisite phosphorylation of GLI1” (Life Science Alliance, 2022)
Positions count from the first letter of the chain named. Numbers in names are those of the source. No constants are given. Whether binding was seen depends on the method and setting. In cells and extracts the contact can be indirect. Some entries that bind do so weakly or less than the wild type. Where a sequence is shown, tags or fusion partners need not be part of it. Blank lines part the entries; values can stand above or below the binder they belong to.

What was measured:
[1] = biological target: T1, GST-SUFU (fusion of GST to full-length human SUFU) (human) (UniProt Q9UMX1); experiment: pull-down; purified GST-SUFU, 1.25-80 nM, captured on glutathione-Sepharose beads; ∼1 pmol 35S-GLI1 (1-232 or full length) in 200 μl; 15 min at 30°C, then 1 h at room temperature; Binding Buffer + 1 mg/ml BSA; bound GLI1 quantified by SDS-PAGE and Phosphorimager; Kd from binding isotherms; only the target purified
T1 sequence: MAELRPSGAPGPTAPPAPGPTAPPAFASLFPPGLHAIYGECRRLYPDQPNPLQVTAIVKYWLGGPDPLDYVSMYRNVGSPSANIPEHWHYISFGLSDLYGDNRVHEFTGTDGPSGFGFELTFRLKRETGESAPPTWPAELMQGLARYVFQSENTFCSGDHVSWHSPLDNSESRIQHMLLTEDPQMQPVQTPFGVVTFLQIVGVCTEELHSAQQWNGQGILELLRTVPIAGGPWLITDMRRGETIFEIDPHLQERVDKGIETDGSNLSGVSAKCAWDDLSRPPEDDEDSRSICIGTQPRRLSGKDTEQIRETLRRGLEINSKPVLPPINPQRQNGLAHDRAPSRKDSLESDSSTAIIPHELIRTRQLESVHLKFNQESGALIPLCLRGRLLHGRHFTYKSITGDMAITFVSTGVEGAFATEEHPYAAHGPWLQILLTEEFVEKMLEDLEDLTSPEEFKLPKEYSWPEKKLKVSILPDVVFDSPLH

[2] = biological target: T2, GST-GLI1^S102,S116 (GST-GLI1_(68-232), only S102 and S116 intact), mock treated (human) (UniProt P08151); experiment: pull-down; purified GST-GLI1_(68-232) variants (mock treated or ERK2 phosphorylated), 0 or 1.25-80 nM, on glutathione-Sepharose beads; ∼1 pmol 35S-SUFU in 200 μl; 15 min at 30°C, then 1 h at room temperature; Binding Buffer (20 mM Tris-HCl pH 7.5, 125 mM KOAc, 0.5 mM EDTA, 5 mM DTT, 0.1% Tween20, 12.5% glycerol) + 1 mg/ml BSA; bound SUFU quantified by SDS-PAGE and Phosphorimager; Kd from binding isotherms; only the target purified
T2 sequence: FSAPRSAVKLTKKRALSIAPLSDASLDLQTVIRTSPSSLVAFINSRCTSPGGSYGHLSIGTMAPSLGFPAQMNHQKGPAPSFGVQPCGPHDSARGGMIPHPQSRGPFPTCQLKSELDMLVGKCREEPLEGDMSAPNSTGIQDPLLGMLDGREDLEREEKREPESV

[3] = biological target: T3, GST-GLI1^S102,S130 (GST-GLI1_(68-232), only S102 and S130 intact), mock treated (human) (UniProt P08151); experiment: as above
T3 sequence: T2 sequence with S49A, A63S

[4] = biological target: T4, GST-GLI1^S116,S130 (GST-GLI1_(68-232), only S116 and S130 intact), mock treated (human) (UniProt P08151); experiment: as above
T4 sequence: T2 sequence with S35A, A63S

[5] = biological target: T5, GST-GLI1^S116,S130, phosphorylated by ERK2 (human) (UniProt P08151); experiment: as above
T5 sequence (chain, phosphorylated by ERK2; intact SP sites S116, S130): T2 sequence with S35A, A63S

[6] = biological target: T6, GST-GLI1^S130 (GST-GLI1_(68-232), only S130 intact), mock treated (human) (UniProt P08151); experiment: as above
T6 sequence: T2 sequence with S35A, S49A, A63S

[7] = biological target: T7, GST-GLI1^SSSS (GST-GLI1_(68-232) S70A S86A S146A), mock treated (human) (UniProt P08151); experiment: as above
T7 sequence: T2 sequence with A63S, A134S

[8] = biological target: T8, GST-GLI1^SSSS, phosphorylated by ERK2 (human) (UniProt P08151); experiment: as above
T8 sequence (chain, phosphorylated by ERK2; intact SP sites S102, S116, S130, S201): T2 sequence with A63S, A134S

- binding [1]: binds
B1: GLI1_(1-232) S116E, 35S-radiolabeled (domain or fragment, UniProt P08151-1 1-232)
chain: MFNSMTPPPISSYGEPCCLRPLPSQGAPSVGTEGLSGPPFCHQANLMSGPHSYGPARETNSCTEGPLFSSPRSAVKLTKKRALSISPLSDASLDLQTVIRTSPSSLVAFINSRCTEPGGSYGHLSIGTMSPSLGFPAQMNHQKGPSPSFGVQPCGPHDSARGGMIPHPQSRGPFPTCQLKSELDMLVGKCREEPLEGDMSSPNSTGIQDPLLGMLDGREDLEREEKREPESV
modifications: [35S]-methionine label

- binding [1]: binds
B4: GLI1_(1-232) S116E S130E, 35S-radiolabeled (domain or fragment, UniProt P08151-1 1-232)
chain: B1 chain with S130E
modifications: [35S]-methionine label

- binding [1]: binds
B6: GLI1_(1-232) S89L (tumor-derived), 35S-radiolabeled (domain or fragment, UniProt P08151-1 1-232)
chain: B1 chain with S89L, E116S
modifications: [35S]-methionine label

- binding [1]: binds
B7: GLI1_(1-232) S130E, 35S-radiolabeled (domain or fragment, UniProt P08151-1 1-232)
chain: B1 chain with E116S, S130E
modifications: [35S]-methionine label

- binding [2]: binds
- binding [3]: binds
- binding [4]: binds
- binding [5]: binds
- binding [6]: binds
- binding [7]: binds
- binding [8]: binds
B8: full-length human SUFU protein, 35S-radiolabeled (natural protein, UniProt Q9UMX1-1 1-484, looked up)
chain: T1 sequence
modifications: [35S]-methionine label
notes: human SUFU, full length, residues 1-484, from plasmid pGEM4Z-SUFU; also called 35S-SUFU; radiolabeled SUFU; source: in vitro transcription and translation (SP6, Promega), partially purified by ammonium sulfate precipitation

Further lines, the binder ahead of its results:

B2: GLI1_(1-232) L88M (tumor-derived), 35S-radiolabeled (domain or fragment, UniProt P08151-1 1-232)
chain: B1 chain with L88M, E116S
modifications: [35S]-methionine label
- binding [1]: binds

B3: GLI1_(1-232) R81W (tumor-derived), 35S-radiolabeled (domain or fragment, UniProt P08151-1 1-232)
chain: B1 chain with R81W, E116S
modifications: [35S]-methionine label
- binding [1]: binds

B5: GLI1_(1-232) S84P (tumor-derived), 35S-radiolabeled (domain or fragment, UniProt P08151-1 1-232)
chain: B1 chain with S84P, E116S
modifications: [35S]-methionine label
- binding [1]: binds
